These are yes or no findings as the source states them, for the method shown. For part of these data: Binding seen in cells or lysates may run through a third protein. Some results given as binding are weak or reduced against the parent protein; the word gives no strength.
Key:
GST-Survivin120 (human) = GST-Survivin120 (human) (UniProt O15392); experiment: pull-down; GST-Survivin120 or GST-Survivin120-K90/103T on GSH beads, with no ligand or 50 µM tweezer conjugate, then CRM1, RanQ69L and 2 mM dGTP; PBS pH 7.4, 1 mM DTT, Triton X-100, room temperature; blot for CRM1 and GST; both purified
[1] = molecular target: GST-Survivin120-K90/103T (human) (UniProt O15392); experiment: as above
GST-CRM1 = GST-CRM1 (UniProt O14980); experiment: pull-down; GST-CRM1 on GSH-Sepharose beads, 293T lysate with Survivin142-HA, with RanQ69L and 2 mM dGTP; PBS pH 7.4, 1 mM DTT, Triton X-100, room temperature; blot for HA and GST; only the target purified

Amino acid sequences for entries named in this document (tags omitted). A change or cut given only in a name is not applied to a line headed by its entry. Chains listed by the source or under a name are the forms on record and can include a tag or linker. Residues count along the entry.
UniProt O15392: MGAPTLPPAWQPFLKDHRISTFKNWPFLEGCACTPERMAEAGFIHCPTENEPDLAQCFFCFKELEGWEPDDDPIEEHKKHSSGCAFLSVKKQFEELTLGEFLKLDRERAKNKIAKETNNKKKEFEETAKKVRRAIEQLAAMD
GST-Survivin120: residues 1-120 of O15392
GST-Survivin120-K90/103T (O15392, form named): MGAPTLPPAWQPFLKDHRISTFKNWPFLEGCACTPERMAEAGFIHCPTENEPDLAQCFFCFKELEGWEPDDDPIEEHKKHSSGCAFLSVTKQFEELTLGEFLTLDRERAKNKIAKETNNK
UniProt O14980: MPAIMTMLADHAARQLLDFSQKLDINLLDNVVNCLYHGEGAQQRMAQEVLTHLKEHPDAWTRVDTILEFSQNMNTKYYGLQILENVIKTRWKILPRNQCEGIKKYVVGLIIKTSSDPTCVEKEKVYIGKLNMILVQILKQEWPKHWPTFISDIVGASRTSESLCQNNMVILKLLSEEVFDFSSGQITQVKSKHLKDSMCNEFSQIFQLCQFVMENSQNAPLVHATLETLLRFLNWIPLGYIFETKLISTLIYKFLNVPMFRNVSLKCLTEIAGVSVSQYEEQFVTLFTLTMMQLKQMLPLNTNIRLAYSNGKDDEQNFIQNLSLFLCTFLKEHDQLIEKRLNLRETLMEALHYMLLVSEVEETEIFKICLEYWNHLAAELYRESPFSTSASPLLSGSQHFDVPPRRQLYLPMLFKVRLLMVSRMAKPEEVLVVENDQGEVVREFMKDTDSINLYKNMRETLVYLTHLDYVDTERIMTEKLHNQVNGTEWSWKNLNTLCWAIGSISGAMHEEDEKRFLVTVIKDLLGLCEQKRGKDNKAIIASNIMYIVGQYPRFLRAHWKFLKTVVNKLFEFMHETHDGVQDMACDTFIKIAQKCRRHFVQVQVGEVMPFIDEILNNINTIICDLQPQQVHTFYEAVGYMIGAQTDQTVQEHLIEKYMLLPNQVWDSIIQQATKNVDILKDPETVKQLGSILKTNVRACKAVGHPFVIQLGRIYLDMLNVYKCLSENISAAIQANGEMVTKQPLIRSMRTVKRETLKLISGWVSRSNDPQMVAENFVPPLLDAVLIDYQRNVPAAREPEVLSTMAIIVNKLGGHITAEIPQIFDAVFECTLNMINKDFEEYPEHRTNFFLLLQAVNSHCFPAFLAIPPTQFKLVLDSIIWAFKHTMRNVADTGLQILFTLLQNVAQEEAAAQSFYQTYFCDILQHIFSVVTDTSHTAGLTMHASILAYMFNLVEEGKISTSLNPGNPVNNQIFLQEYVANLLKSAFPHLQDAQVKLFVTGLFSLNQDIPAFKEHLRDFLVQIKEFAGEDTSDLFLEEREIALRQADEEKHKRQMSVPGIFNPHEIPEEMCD

With “CRM1 (recombinant, prey protein) (from UniProt O14980 1-1071) (receptor)” the binding (GST-Survivin120 (human)) was “binds” and the binding [1] was “binds”.
“Survivin142-HA (from UniProt O15392 1-142)” was tested, and the binding (GST-CRM1) was “binds”.

Source: article PMC7940618, “Specific inhibition of the Survivin–CRM1 interaction by peptide-modified molecular tweezers” (Nature Communications, 2021)
